Experimental data: patent publication US7018791B1, “Binding complexes” (Institute of Cancer Research: Royal Cancer Hospital, priority 1997, dated 2006)
These are yes or no findings as the source states them, for the method shown. Some binding calls cover weakened binding; strength is not graded here.

Protein sequences, listed by entry. Tags and fused reporters are not part of them. Lines headed by an entry give the natural chain unless they say otherwise; changes in a name come on top.
UniProt P11983: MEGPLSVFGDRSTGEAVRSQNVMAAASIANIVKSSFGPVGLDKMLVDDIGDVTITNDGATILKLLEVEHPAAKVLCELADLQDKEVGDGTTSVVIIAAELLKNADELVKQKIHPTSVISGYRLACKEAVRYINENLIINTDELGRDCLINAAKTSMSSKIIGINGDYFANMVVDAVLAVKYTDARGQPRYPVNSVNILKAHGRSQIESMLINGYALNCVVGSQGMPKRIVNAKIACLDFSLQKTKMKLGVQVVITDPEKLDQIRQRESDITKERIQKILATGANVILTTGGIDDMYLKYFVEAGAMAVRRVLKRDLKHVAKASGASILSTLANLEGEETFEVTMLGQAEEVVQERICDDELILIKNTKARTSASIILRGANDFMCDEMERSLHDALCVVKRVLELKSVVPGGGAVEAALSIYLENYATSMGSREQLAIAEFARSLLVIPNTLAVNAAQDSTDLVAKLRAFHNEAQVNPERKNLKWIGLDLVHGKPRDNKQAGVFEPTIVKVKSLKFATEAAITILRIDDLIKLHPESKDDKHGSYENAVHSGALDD

Target: CCT (chaperonin containing TCP-1) complex from mouse testis (mouse) (UniProt P11983)
Assay: biotinylated peptide with CCT in solution, native PAGE blot

| binding | Binder |
| --- | --- |
| binds | SGSGGRARHQGVMVGMGQK (biotin group at the N-terminus; amide C-terminus) [peptide 8.3, biotin-SGSG-…] |
| binds | SGSGGAPRHQGVMVGMGQK (biotin group at the N-terminus; amide C-terminus) [peptide 8.2, biotin-SGSG-…] |

Target: CCT (chaperonin containing TCP-1) complex from mouse testis (mouse) (UniProt P11983)
Assay: immobilised 15-mer peptide pins, mouse testis CCT, ELISA with MAb 91a, A410

| binding | Binder |
| --- | --- |
| binds | APRAVFPSIVGRPRH [mouse beta actin substrate peptide 6 (residues 26-40), immobilised] |
| binds | GGTTMYPGIADRMQK [mouse beta actin substrate peptide 61 (residues 301-315), immobilised] |
| binds | FPSIVGRPRHQGVMV [mouse beta actin substrate peptide 7 (residues 31-45), immobilised] |
| binds | GRPRHQGVMVGMGQK [mouse beta actin substrate peptide 8 (residues 36-50), immobilised] |

Target: CCT (chaperonin containing TCP-1) complex from mouse testis (mouse) (UniProt P11983)
Assay: biotinylated peptide with CCT in solution, native PAGE, blot probed with streptavidin-HRP

| binding | Binder |
| --- | --- |
| binds | SGSGGRPRHQGVMVGMGQK (biotin group at the N-terminus; amide C-terminus) [biotinylated actin peptide number 8, biotin-SGSG-… (wild-type β-actin residues 36-50)] |
| binds | SGSGGRARHQGVMVGMGQK (biotin group at the N-terminus; amide C-terminus) [peptide 8.3, biotin-SGSG-…] |
| binds | SGSGGAPRHQGVMVGMGQK (biotin group at the N-terminus; amide C-terminus) [peptide 8.2, biotin-SGSG-…] |

Target: CCT (chaperonin containing TCP-1) complex from mouse testis (mouse) (UniProt P11983)
Assay: strength of CCT binding to immobilised peptides, ELISA with MAb 91a, A410

| Binder | binding |
| --- | --- |
| GRPRHQGVMVGMGQK [reference peptide 3 (FIG. 10)] | binds |
| FPSIVGRPRHQGVMV [reference peptide 2 (FIG. 10)] | binds |
| TFNTPAMYVAIQAVL [reference peptide 6 (FIG. 10)] | binds |
| GGTTMYPGIADRMQK [reference peptide 4 (FIG. 10)] | binds |
| APRAVFPSIVGRPRH [reference peptide 1 (FIG. 10)] | binds |
| LPHAILRLDLAGRDL [reference peptide 7 (FIG. 10)] | binds |
| PRHQGVMVGMGQKDS [reference peptide 5 (FIG. 10)] | binds |

Second part, the binder after the results:

| binding | Binder |
| --- | --- |
| binds | IQAVLSLYASGRTTG [reference peptide 10 (FIG. 10)] |
| binds | ASSSSLEKSYELPDG [reference peptide 13 (FIG. 10)] |
| binds | APSTMKIKIIAPPER [reference peptide 14 (FIG. 10)] |
| binds | RGYSFTTTAEREIVR [reference peptide 12 (FIG. 10)] |
| binds | LASLSTFQQMWISKQ [reference peptide 8 (FIG. 10)] |
| binds | DEAQSKRGILTLKYP [reference peptide 9 (FIG. 10)] |
| binds | KILTERGYSFTTTAE [reference peptide 11 (FIG. 10)] |
| binds | APPERKYSVWIGGSI [reference peptide 15 (FIG. 10)] |

Target: CCT (chaperonin containing TCP-1) complex from mouse testis (mouse) (UniProt P11983)
Assay: peptide with CCT in buffered solution, non-denaturing gel, blot probed with streptavidin-HRP

| binding | Binder |
| --- | --- |
| binds | SGSGGRPRHQGVMVGMGQK (biotin group at the N-terminus; amide C-terminus) [biotinylated actin peptide number 8, biotin-SGSG-… (wild-type β-actin residues 36-50)] |
